Results deposited as PubChem BioAssay AID504764 (Drosophila RNAi Screening Center, 2011)
Screen: 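Genome-wide screen for regulators of Notch-driven gene expression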 (primary screen). Cells: Drosophila Kc167 cells. Reagents: long dsRNA against Drosophila genes. Time to read-out: about 5 days (4 days dsRNA, then 24 h after transfection). Conditions: transfection of constitutively active membrane-tethered Notch lacking the extracellular domain, read 24 h later. Measured: 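Firefly luciferase from an E(spl)m3 reporter with active Notch, plus control-promoter and uninduced reporter wells for normalisation; unnormalised counts, duplicate wells a and b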. Direction: induced reporter light, run 1, well a and induced reporter light, run 1, well b: higher = more light from the Notch target reporter with active Notch; control promoter light, run 1, well a and control promoter light, run 1, well b: higher = more light from the viral control promoter (cell number, transfection, viability); uninduced reporter light, run 1, well a: higher = more light from the Notch target reporter without active Notch. Call rule: 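Wells with low control signal or poorly matching duplicates excluded; duplicates averaged; per source plate, z beyond ±2 for induced/control log2 ratio or beyond ±1.8 for induced/uninduced marks a hit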. Calls: active = modifier hit (raised or lowered Notch signal); inactive = not a hit.
The deposit covers about 22,000 reagents; below is a random part of those that have a named target and a result. Of all reagents, 403 (1.9%) were called active. 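Unnormalised raw counts per well; ratio z-scores behind the hit calls and whether each hit raises or lowers signal are not deposited.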 A number with no mark means an inactive call. Names joined by + are all predicted targets of the reagent. The record does not give: the amount of reagent.

| Gene | amplicon | induced reporter light, run 1, well a | induced reporter light, run 1, well b | control promoter light, run 1, well a | control promoter light, run 1, well b | uninduced reporter light, run 1, well a |
| --- | --- | --- | --- | --- | --- | --- |
| CG16743 | DRSC02514 | 62020 | 75915 | 34475 | 37380 | 9700 |
| CG42591 | DRSC08905 | 2.46e5 | 2.64e5 | 3.17e5 | 3.51e5 | 15420 |
| CG17217 | DRSC02592 | 1.25e5 | 1.29e5 | 1.36e5 | 1.34e5 | 10015 |
| CG6770 | DRSC02992 | 1.04e5 | 99380 | 82125 | 91735 | 7255 |
| CG16824 | DRSC02525 | 88290 | 1.17e5 | 1.04e5 | 1.26e5 | 7915 |
| CG42568 + DnaJ-60 | DRSC04207 | 2.20e5 | 2.29e5 | 1.99e5 | 1.72e5 | 14725 |
| CG42568 + DnaJ-60 | DRSC04611 | 1.87e5 | 1.80e5 | 1.53e5 | 1.42e5 | 12355 |
| CG1640 | DRSC19750 | 1.60e5 | 1.96e5 | 2.15e5 | 2.23e5 | 12920 |
| CG10474 | DRSC05993 | 34890 | 29815 | 34860 | 35640 | 3800 |
| CG31106 | DRSC14655 | 1.99e5 | 1.53e5 | 2.17e5 | 2.03e5 | 14415 |
| Hrb87F (Heterogeneous nuclear ribonucleoprotein at 87F) | DRSC16708 | 55385 | 51550 | 43545 | 37410 | 5865 |
| CG14692 | DRSC14915 | 1.19e5 | 1.56e5 | 1.23e5 | 88760 | 6585 |
| Tes (Testin) | DRSC06996 | 1.13e5 | 1.07e5 | 98010 | 78360 | 9430 |
| hoka | DRSC08313 | 1.82e5 | 1.65e5 | 2.33e5 | 2.23e5 | 12150 |
| drm (drumstick) | DRSC00277 | 2.26e5 | 2.00e5 | 2.44e5 | 2.10e5 | 10585 |
| CG5382 | DRSC15786 | 2.00e5 | 2.25e5 | 2.75e5 | 2.42e5 | 15360 |
| CG14615 | DRSC20627 | 80365 | 1.06e5 | 97630 | 1.11e5 | 9310 |
| CG3277 | DRSC00588 | 1.74e5 | 1.24e5 | 1.85e5 | 1.37e5 | 11795 |
| CG30457 | DRSC06661 | 1.20e5 | 84485 | 1.29e5 | 1.22e5 | 10170 |
| Coop (Corepressor of Pangolin) | DRSC06604 | 2.05e5 | 1.62e5 | 1.35e5 | 1.69e5 | 15500 |
